Values from PubChem BioAssay AID1259254 (NCATS, 2017).
In all, the deposit lists about 59,000 reagents; shown is an unselected part. About 1,550 of all reagents (2.6%) count as active. 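G2 share is only a proxy for re-replication; each gene was hit by three separate siRNAs, and active genes were retested.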 Unmarked entries are inactive. Reagents against one gene are numbered here. Not all columns of the deposit are shown. Not given: the amount of reagent.

- Aim: 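Finding genes that stop cells copying their DNA twice in one cycle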 (primary screen)
- Cell system: human HCT116 colorectal cancer cells
- Knock-down reagent: single siRNA against human genes
- Duration: 3 days
- Measured: 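Imaged Hoechst DNA stain sorts each cell into a cycle phase by DNA amount; per plate, G2 fraction set to 0% for non-targeting and 100% for GMNN siRNA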
- Direction: G2 robust z-score: higher = more G2 cells, more excess DNA replication
- Call rule: 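Active siRNAs have a G2 robust z of 5 or more median absolute deviations over the median, which in these data means about 38% or higher of GMNN control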

Silencing of AMPD2 (adenosine monophosphate deaminase 2) #1 resulted in: G2 robust z-score -0.376.
With knock-down of AMPD2 (adenosine monophosphate deaminase 2) #2 the results were G2 robust z-score 2.38.
AMPD2 (adenosine monophosphate deaminase 2) #3 scored G2 robust z-score 7.14 (active).
Silencing of PHB1 (prohibitin 1) #1 gave: G2 robust z-score 3.53.
For PHB1 (prohibitin 1) #2 the deposit lists G2 robust z-score 1.15.
PHB1 (prohibitin 1) #3 showed G2 robust z-score -0.695.
Against LYRM4 (LYR motif containing 4) #1, the entry reads G2 robust z-score 0.423.
LYRM4 (LYR motif containing 4) #2 scored G2 robust z-score -1.08.
LYRM4 (LYR motif containing 4) #3 showed G2 robust z-score 0.0162.
ABHD2 (abhydrolase domain containing 2, acylglycerol lipase) #1 showed G2 robust z-score 2.22.
Against ABHD2 (abhydrolase domain containing 2, acylglycerol lipase) #2 the deposit lists G2 robust z-score 3.45.
Against ABHD2 (abhydrolase domain containing 2, acylglycerol lipase) #3, the values are G2 robust z-score -0.532.
For CFAP73 (cilia and flagella associated protein 73) #1, the values are G2 robust z-score -1.41.
Against CFAP73 (cilia and flagella associated protein 73) #2, the values are G2 robust z-score -0.301.
Depletion of CFAP73 (cilia and flagella associated protein 73) #3 gave: G2 robust z-score 0.164.
MAPK1 (mitogen-activated protein kinase 1) #1 gave G2 robust z-score -1.74.
For MAPK1 (mitogen-activated protein kinase 1) #2 the deposit lists G2 robust z-score 0.188.
MAPK1 (mitogen-activated protein kinase 1) #3 scored G2 robust z-score -0.585.
Against ENG (endoglin) #1, the values are G2 robust z-score 0.492.
Silencing of ENG (endoglin) #2 resulted in: G2 robust z-score -1.3.
Silencing of ENG (endoglin) #3 came out at: G2 robust z-score 2.16.
Silencing of HDAC11 (histone deacetylase 11) #1 gave: G2 robust z-score 1.18.
Depletion of HDAC11 (histone deacetylase 11) #2 came out at: G2 robust z-score 0.168.
HDAC11 (histone deacetylase 11) #3 gave G2 robust z-score 2.18.
ARHGAP29 (Rho GTPase activating protein 29) #1 gave G2 robust z-score -0.121.
Depletion of ARHGAP29 (Rho GTPase activating protein 29) #2 resulted in: G2 robust z-score 4.43.
Depletion of ARHGAP29 (Rho GTPase activating protein 29) #3 gave: G2 robust z-score 0.517.
After knock-down of TMEM74 (transmembrane protein 74) #1 the results were G2 robust z-score 0.141.
For TMEM74 (transmembrane protein 74) #2 the deposit lists G2 robust z-score 0.127.
With knock-down of TMEM74 (transmembrane protein 74) #3, the screen gave G2 robust z-score -0.45.

Targets above whose target name starts with M or m (3):
MAPK1 (mitogen-activated protein kinase 1) #1: G2 robust z-score = -1.74
MAPK1 (mitogen-activated protein kinase 1) #2: G2 robust z-score = 0.188
MAPK1 (mitogen-activated protein kinase 1) #3: G2 robust z-score = -0.585
